PubChem BioAssay AID2551 (National Center for Advancing Translational Sciences (NCATS), 2010)
Among all 310,000 compounds or so, about 17,000 (5.5%) were called active. This list was built around the results that the source calls inconclusive (neither active nor inactive); the mix of calls is not that of the screen. The call rests on the fitted dose curve; in most records, active means well fitted inhibition curve with a large enough effect; inconclusive means small, poorly fitted or top-dose-only effect, or effect the other way; inactive means no such curve, though single readings can be large or run the other way. Potencies of inconclusive entries are doubtful fits and often do not repeat.

By UniProt entry, the sequences of proteins in these tests, tags left out. Where a name states a change or a piece, a line headed by the entry shows the natural chain unless it says otherwise.
UniProt P51450: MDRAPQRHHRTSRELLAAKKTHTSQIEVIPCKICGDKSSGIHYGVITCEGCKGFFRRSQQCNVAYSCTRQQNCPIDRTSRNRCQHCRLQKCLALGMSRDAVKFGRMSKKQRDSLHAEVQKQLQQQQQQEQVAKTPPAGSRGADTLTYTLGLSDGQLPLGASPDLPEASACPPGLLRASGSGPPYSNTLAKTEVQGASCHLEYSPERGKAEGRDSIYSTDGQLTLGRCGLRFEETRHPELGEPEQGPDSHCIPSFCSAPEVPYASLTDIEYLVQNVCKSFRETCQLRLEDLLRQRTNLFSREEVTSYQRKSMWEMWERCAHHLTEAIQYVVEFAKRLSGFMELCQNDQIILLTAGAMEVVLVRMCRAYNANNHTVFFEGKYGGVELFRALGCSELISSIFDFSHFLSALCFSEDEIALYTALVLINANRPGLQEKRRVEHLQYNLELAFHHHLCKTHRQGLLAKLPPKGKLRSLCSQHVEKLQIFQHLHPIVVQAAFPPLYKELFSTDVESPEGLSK

target: Nuclear receptor ROR-gamma (Mus musculus) (UniProt P51450); test: qHTS for inhibitors of ROR gamma transcriptional activity; conditions: Drosophila S2 Gal4-RORgamma UAS-luciferase reporter, 20 h; activity change, negative = inhibition: at 53.6 µM (top of the series); further: nearly all actives have a fitted effect of over 60% in size
In short: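 Luminescence from a UAS-regulated Photinus luciferase reporter in stably transfected Drosophila Schneider cells is measured; decreased signal marks ROR gamma inhibition. Fusion expression is induced by 700 uM copper sulfate for 20 hr.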
On the % scale 0 is the no-effect control and ±100 the full control effect; potency means the concentration at half of the fitted maximal effect.

Potency, inconclusive:
C=CCn1c(O)c(N=Nc2ccccc2)c2ccccc21 14.1 µM [inhibitor, single point]
CCCCCC(=O)NC(NC(=S)N1CCOCC1)C(Cl)(Cl)Cl (stereo unspecified) 10 µM [activator, partial curve, poor fit]
Cc1cc(-c2nc3ccccc3[nH]2)ccc1N 35.5 µM [inhibitor, single point]
NC(=O)c1noc(C(=O)N(CC(=O)NC2CCCC2)Cc2ccc3c(c2)OCO3)c1N 6.31 µM [inhibitor, single point]
COc1c(C(=O)Nc2ccc(Cc3ccncc3)cc2)ccc2ccccc12 15.8 µM [activator, single point]
CCOc1ccc(NC(=O)c2cccc(NC(=O)c3ccccc3)c2)cc1 2.24 µM [activator, full curve]
CCN(CC)S(=O)(=O)c1cc(C(=O)N(C)CC(=O)Nc2ccc(Cl)cc2)ccc1Cl 31.6 µM [activator, single point]
Cc1c(N2C(=O)/C(=C\c3ccc(N(C)C)cc3)N(C)C2=S)c(=O)n(-c2ccccc2)n1C 35.5 µM [activator, single point]
Fc1ccccc1CNc1ncnc2sccc12 2.82 µM [activator, partial curve]
Cc1nn(CC(=O)O)c(=O)c2ccccc12 35.5 µM [inhibitor, partial curve, poor fit]
c1ccc(Oc2cccc(OCCCCSc3ncccn3)c2)cc1 22.4 µM [activator, single point]
Nc1ccc(Br)c2c1C(=O)c1ccccc1C2=O 15.8 µM [inhibitor, partial curve, poor fit]
CCn1c(SCc2ccccc2)nnc1C1CCN(S(=O)(=O)c2ccc(OC)cc2)CC1 12.6 µM [activator, partial curve]
COCc1cc(=O)[nH]c(/N=C(\N)Nc2ccc(Oc3ccccc3)cc2)n1 5.62 µM [activator, partial curve, poor fit]
CCn1c(-c2ccc(C(C)(C)C)cc2)n[nH]c1=S 2.82 µM [inhibitor, full curve, poor fit]
O=C(CC1OCC2CCCN2C1=O)Nc1ccc([N+](=O)[O-])cc1 (stereo unspecified) 11.2 µM [inhibitor, single point]
CCN1CCN(Cc2ccc(NC(=O)Nc3ccccc3)cc2)CC1 15.8 µM [inhibitor, single point]
CCCc1cc(=O)oc2cc3occ(C)c3cc12 6.31 µM [inhibitor, single point]
CC(C)NC(=O)NC(=O)COC(=O)c1ccc(F)cc1F 0.398 µM [inhibitor, partial curve]
O=S(=O)(Cc1ccc(Cl)cc1)N1CCN(c2ncccn2)CC1 5.62 µM [activator, single point]
O=C(CCCCCCN1C(=O)c2ccccc2C1=O)Nc1nccs1 28.2 µM [activator, single point]
CC(C)c1ccc(-c2nc3ccccc3s2)cc1 0.0355 µM [inhibitor, full curve, poor fit]
Cc1occc1C(=O)N/N=C/c1ccc(OCc2ccccc2)cc1 22.4 µM [inhibitor, single point]
COc1cc(C2Nc3ccccc3C(=O)N2c2ccc3c(c2)OCCO3)ccc1OCC(C)C (stereo unspecified) 35.5 µM [inhibitor, single point]
COc1ccc(NC(=O)Nc2ccccc2F)c(C)c1 0.0891 µM [activator, full curve, poor fit]
CC1(C)CC(=O)C2=C(C1)N=C1SCCC(=O)N1C2c1ccc(C(F)(F)F)cc1 (stereo unspecified) 35.5 µM [activator, single point]
COc1ccc(-c2cn3c(C)c(C(=O)NCCN4CCOCC4)sc3n2)cc1 10 µM [inhibitor, partial curve]
COc1ccccc1OCc1ccc(C(=O)c2ccccc2)cc1 14.1 µM [activator, partial curve, poor fit]
C=CCNC1=C2C[C@@H](C)C[C@H](OC)[C@H](O)[C@@H](C)/C=C(\C)[C@H](OC(N)=O)[C@@H](OC)/C=C/C=C(\C)C(=O)NC(=CC1=O)C2=O 0.178 µM [activator, partial curve]
O=C(NC(=S)NCC1CCCO1)c1ccccc1 (stereo unspecified) 22.4 µM [inhibitor, single point]
COC(=O)c1cc2c(ccn2-c2ccc(F)cc2)n1Cc1ccc(C#N)cc1 7.94 µM [activator, partial curve]
CC1CCN(C(=O)COc2ncnc3ccccc23)CC1 7.94 µM [activator, partial curve, poor fit]
CCOC(=O)c1c(C)c(C(=O)Nc2ccc(N(C)C)cc2)c(C)n1CC 11.2 µM [activator, partial curve]
CCC(C)NC(=O)c1cc(-c2ccc(OC)cc2)on1 (stereo unspecified) 0.141 µM [activator, full curve, poor fit]
O=[N+]([O-])c1ccc(N/N=C/c2sc(N3CCOCC3)nc2-c2ccccc2)c(S(=O)(=O)Nc2ccc(Cl)cc2)c1 0.562 µM [inhibitor, full curve, poor fit]
CCC(=O)c1ccc(N2CCN(C(=O)c3cccs3)CC2)c(F)c1 10 µM [activator, partial curve, poor fit]
O=C(CSc1ncnc2c1oc1ccccc12)NCc1ccco1 1.58 µM [activator, partial curve]
CCc1ccc(NC(=O)C(C)OC(=O)c2cc(=O)[nH]c3ccc(S(=O)(=O)Nc4ccc(F)cc4)cc23)cc1 (stereo unspecified) 6.31 µM [activator, single point]
CCOC(=O)N1CCN(C(c2ccc(C)cc2)c2sc3nc(C)nn3c2O)CC1 (stereo unspecified) 0.126 µM [activator, single point]
Cc1ccc(C2(CCNC(C)c3cccs3)CCOC(C(C)C)C2)cc1 (stereo unspecified) 11.2 µM [inhibitor, partial curve]
COc1ccc(N=c2sc3ccccc3n2C)cc1 0.398 µM [activator, full curve, poor fit]
COc1ccc(C2SCCN2C(=S)Nc2ccc(F)cc2)cc1 (stereo unspecified) 10 µM [inhibitor, single point]
COc1ccc(NC(=O)C2COc3ccccc3O2)cc1 (stereo unspecified) 0.794 µM [inhibitor, single point]

An excerpt from above in order of length of the SMILES, ascending.
Potency, inconclusive:
O=C(NC(=S)NCC1CCCO1)c1ccccc1 (stereo unspecified) 22.4 µM [inhibitor, single point]
Nc1ccc(Br)c2c1C(=O)c1ccccc1C2=O 15.8 µM [inhibitor, partial curve, poor fit]
Cc1ccc(C2(CCNC(C)c3cccs3)CCOC(C(C)C)C2)cc1 (stereo unspecified) 11.2 µM [inhibitor, partial curve]

Next part.

Potency, active:
CCN(CC)CCn1c(=S)[nH]c2ccc(Br)cc2c1=O 11.2 µM
O=C(NNc1nc(-c2ccccc2)c2cc(Br)ccc2n1)c1ccc(S(=O)(=O)N2CCOCC2)cc1 7.94 µM
CC1CCCCN1S(=O)(=O)c1ccc(C(=O)Nc2nnc(-c3ccccn3)o2)cc1 (stereo unspecified) 2 µM
CCN(CC)c1nc(=S)nc(NC(C)(C)C)[nH]1 1.26 µM
Oc1c(C(c2ccc(Cl)cc2)N2CCCC2)cc(Cl)c2cccnc12 (stereo unspecified) 1.41 µM
COc1cc(SC)ccc1C(=O)Nc1nc2ccccc2[nH]1 0.1 µM
CCc1ccccc1NC(=S)NN 11.2 µM
CC(=N\NC(=O)c1ccc([N+](=O)[O-])cc1)/C(=N/O)C(=O)Nc1ccccc1 3.98 µM
Cc1ccc2nc(/C(C#N)=C\c3ccc([N+](=O)[O-])o3)[nH]c2c1 5.62 µM
O=C(Nc1ccc(O)c(-c2nc3ccccc3o2)c1)C1(c2ccc(Br)cc2)CCCC1 6.31 µM
COC(=O)c1ccc(COc2ccc(/C=N/NC(N)=S)cc2)o1 11.2 µM
CC(C)c1ccc(NC(=S)NN(c2ccccc2)c2ccccc2)cc1 3.16 µM

Activity change, negative = inhibition, inactive:
Cc1cccc(C(=O)Nc2onc(C)c2C#N)c1 22.7%
CC(=O)NCCOc1cccc2cccnc12 -0.303%
Cc1cc(C)n(C(=O)c2c([N+](=O)[O-])c(C)nn2C)n1 26.2%
O=C(/C=C/c1ccccc1[N+](=O)[O-])NCc1ccncc1 -4.31%
O=c1c(-c2ccc(Cl)cc2)nc2cnc(N3CCOCC3)nc2n1Cc1ccc(F)cc1 -32.2%
O=C1CCN1C1(C(=O)NC2CCCCC2)CCCC1 0.337%
Cn1ncc(Cl)c1C(=O)NNC(=O)Nc1cccc2ccccc12 26.1%
c1cn2c(Nc3ccc4c(c3)OCCO4)c(-c3ccc(N4CCOCC4)cc3)nc2cn1 4.34%
O=C(CN1CCCCCCC1)N/N=C/c1ccc(F)c(F)c1 3.71%
O=C(C1CCN(S(=O)(=O)c2cccs2)CC1)N1CCCCC1 3.04%
CN(C)c1ccc(/C=N/Nc2ccc(-n3ccnc3)nn2)cc1 7.36%
CN(C)c1ncc2nc(CCc3ccccc3)c(=O)n(Cc3ccc(F)cc3)c2n1 -12.4%
CC(=O)NCCNC(=O)c1ccc(Cn2c(=O)[nH]c3ccsc3c2=O)cc1 13.8%
COc1ccc(C(=O)N2CCC3(CCCN(C(=O)NC(C)C)C3)CC2)cc1 13.2%
CCC1C(=O)NCCN1C(=O)c1ccccc1OC1CCN(S(C)(=O)=O)CC1 (stereo unspecified) 16.4%
COc1ccccc1N1C(=O)C(Cl)=C(Nc2ccccc2O)C1=O -3.84%
